From patent publication US20260191991A1, “COMPSTATIN ANALOGS FOR VECTOR-BASED THERAPY” (AMYNDAS PHARMACEUTICALS US LLC, priority 2022, published 2026)
Not every detail of the peptide structures is certain; ends, links or a residue may be inferred.

By UniProt entry, the sequences of proteins in these tests, tags left out. Residues count along the entry.
UniProt P01024, 23-1663: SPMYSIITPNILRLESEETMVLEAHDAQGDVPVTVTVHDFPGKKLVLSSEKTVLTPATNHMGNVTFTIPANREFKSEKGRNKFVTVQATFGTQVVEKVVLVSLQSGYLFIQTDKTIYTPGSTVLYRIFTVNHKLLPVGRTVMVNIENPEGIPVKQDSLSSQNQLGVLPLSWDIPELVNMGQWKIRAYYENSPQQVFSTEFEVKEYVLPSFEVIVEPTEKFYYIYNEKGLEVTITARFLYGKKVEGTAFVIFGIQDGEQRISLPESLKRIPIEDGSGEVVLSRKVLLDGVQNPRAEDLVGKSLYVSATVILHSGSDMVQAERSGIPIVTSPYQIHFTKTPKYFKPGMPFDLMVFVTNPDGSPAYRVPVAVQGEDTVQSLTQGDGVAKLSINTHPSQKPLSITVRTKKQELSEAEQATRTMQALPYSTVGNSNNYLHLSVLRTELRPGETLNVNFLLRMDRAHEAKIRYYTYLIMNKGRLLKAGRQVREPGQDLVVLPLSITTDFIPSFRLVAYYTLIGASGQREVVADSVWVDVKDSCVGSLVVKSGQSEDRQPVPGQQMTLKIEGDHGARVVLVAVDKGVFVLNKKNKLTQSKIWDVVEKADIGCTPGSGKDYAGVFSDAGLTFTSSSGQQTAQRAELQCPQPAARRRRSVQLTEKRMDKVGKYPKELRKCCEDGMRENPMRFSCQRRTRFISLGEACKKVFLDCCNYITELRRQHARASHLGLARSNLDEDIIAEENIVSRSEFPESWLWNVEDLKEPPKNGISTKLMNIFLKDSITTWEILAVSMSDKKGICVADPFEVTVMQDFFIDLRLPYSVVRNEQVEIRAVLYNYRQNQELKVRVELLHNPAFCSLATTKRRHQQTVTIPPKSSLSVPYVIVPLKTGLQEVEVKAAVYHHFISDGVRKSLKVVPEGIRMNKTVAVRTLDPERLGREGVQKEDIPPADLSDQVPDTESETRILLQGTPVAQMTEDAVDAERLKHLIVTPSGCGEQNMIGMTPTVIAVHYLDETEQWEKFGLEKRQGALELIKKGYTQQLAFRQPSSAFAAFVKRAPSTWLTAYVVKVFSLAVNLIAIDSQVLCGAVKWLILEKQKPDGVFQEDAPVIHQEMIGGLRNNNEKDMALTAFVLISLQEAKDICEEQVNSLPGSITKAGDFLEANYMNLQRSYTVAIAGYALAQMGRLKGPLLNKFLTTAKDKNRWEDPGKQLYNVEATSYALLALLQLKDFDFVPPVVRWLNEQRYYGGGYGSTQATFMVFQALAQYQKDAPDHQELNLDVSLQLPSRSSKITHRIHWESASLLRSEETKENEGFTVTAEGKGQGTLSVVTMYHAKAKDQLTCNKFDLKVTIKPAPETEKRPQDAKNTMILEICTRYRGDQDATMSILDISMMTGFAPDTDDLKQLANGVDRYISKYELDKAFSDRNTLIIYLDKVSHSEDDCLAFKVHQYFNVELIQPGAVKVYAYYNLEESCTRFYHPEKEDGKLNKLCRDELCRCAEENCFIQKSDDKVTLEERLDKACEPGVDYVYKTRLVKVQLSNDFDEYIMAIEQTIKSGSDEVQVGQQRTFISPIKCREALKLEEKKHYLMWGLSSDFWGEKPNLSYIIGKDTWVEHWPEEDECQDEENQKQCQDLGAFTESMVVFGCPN

What was measured:
gingival inflammation = conditions: intragingival; effect extending to 90 days after discontinuation; cited from earlier work
C3 = C3 (Homo sapiens, UniProt P01024); conditions: background statement; cited from earlier work
[1] = Hydrophobicity as HPLC retention on a C18 column (Table 1); assay type: physicochemical; conditions: retention time during HPLC analysis on a C18 column

Row | SMILES | key clinical indices of gingival inflammation and markers of inflammatory tissue injury (gingival inflammation) | binding affinity for C3 (C3) | Hydrophobicity Retention [1] [min]
1 | CC[C@H](C)[C@H](NC(=O)[C@H](N)Cc1ccc(O)cc1)C(=O)N[C@H]1CSSC[C@@H](C(=O)N(C)[C@H](C(N)=O)[C@@H](C)CC)NC(=O)[C@H](CCCNC(=N)N)NC(=O)[C@H](Cc2c[nH]cn2)NC(=O)[C@H](C)NC(=O)CN(C)C(=O)[C@H](Cc2c[nH]c3ccccc23)NC(=O)[C@H](CC(=O)O)NC(=O)[C@H](CCC(N)=O)NC(=O)[C@H](Cc2cn(C)c3ccccc23)NC(=O)[C@H](C(C)C)NC1=O [Cp40, dTyr-Ile-[Cys-Val-1MeTrp-Gln-Asp-Trp-Sar-Ala-His-Arg-Cys]-mIle] | significant reduction | picomolar | 4.73
2 | CC[C@H](C)[C@H](NC(C)=O)C(=O)N[C@H]1CSSC[C@@H](C(=O)N[C@H](C(N)=O)[C@@H](C)O)NC(=O)[C@H](CCCNC(=N)N)NC(=O)[C@H](Cc2c[nH]cn2)NC(=O)[C@H](C)NC(=O)CNC(=O)[C@H](Cc2c[nH]c3ccccc23)NC(=O)[C@H](CC(=O)O)NC(=O)[C@H](CCC(N)=O)NC(=O)[C@H](Cc2cn(C)c3ccccc23)NC(=O)[C@H](C(C)C)NC1=O [Cp05] |  |  | 5.09
